Measurements from paper PMC8582188.

Molecular target: recombinant His6-Atp3 (S. cerevisiae)
Assay: pull-down; Talon-bead-bound His-tagged proteins incubated with 5 ug GST proteins; 20 mM Tris-HCl pH 7.4, 100 mM NaCl, 0.1% NP-40, 4 °C, 1 h; washed with 50 mM imidazole; immunoblot; both purified

| binding | Binder |
| --- | --- |
| binds | recombinant GST-tagged Ids2 (protein, UniProt P46958 1-469) MDNQQESISEDITGDLAAAVRKSWSESQDNPLLLNFNNSPIGTPTDRYSPEPATMMEGNAMNLSSLARGSTQQQQRLYGSSQTREKSDQQQQDYQLFKHHYSLGQETRESVSDILNDLTLGSPEPSERASPIRQPSVDVPPLTTRRSSIQDVQWIRHLLNPRSSFSGASSNEPTNSPGDFLNQSRAWITILHDSSAESLQAVIVLAESLKNVNSQYNLWVLHSSEVNAFQLAQVGIKTLIIDEYINLFMNFGTGSGFSASSQSTETKGELNFKWCKLFLFFSLIDRFELICYLSPTCLVLQNIDELLESTEVSDEIDNETCVLLSNKVNYINEDLVSVNQDQSSAENYDDDPQIIILKPNRAVAMCIKEYFTIYGNDFEGESKRSMFHQMNDLQIMKALFGDKWSYIDSVGYCAVPIASVPANRLNYKIIEFKILKPWERQNYIAAGQHRESIMNKWLDLWRDFLNQAN |
| binds | Ids2 middle region (aa 92-256) (domain or fragment, UniProt P46958 92-256) QDYQLFKHHYSLGQETRESVSDILNDLTLGSPEPSERASPIRQPSVDVPPLTTRRSSIQDVQWIRHLLNPRSSFSGASSNEPTNSPGDFLNQSRAWITILHDSSAESLQAVIVLAESLKNVNSQYNLWVLHSSEVNAFQLAQVGIKTLIIDEYINLFMNFGTGSG |

No constants are given. Whether binding was seen depends on the method and setting. A result given as binding can be weak or reduced; the word gives no strength. Where a sequence is shown, tags or fusion partners need not be part of it.
